Results published in patent US11407763B2, “Tryptophan hydroxylase inhibitor and pharmaceutical composition including same” (GWANGJU INSTITUTE OF SCIENCE AND TECHNOLOGY, priority 2017, dated 2022).
For at least one compound, name, drawing or mass did not settle the structure.

Legend:
Assay type in all cases: in vivo, C57BL/6J mice
DSS colitis [1] = assay: DSS colitis mouse model: MPO (myeloperoxidase) activity in colon tissue; conditions: 2.5% DSS
DSS colitis [2] = assay: DSS colitis mouse model: colon length and colon looseness; conditions: 2.5% DSS
Method: C57BL/6J (Jackson Lab) male mice weighing 25±2 g at 9 weeks of age were used, and all the mice were fed freely by providing standard experimental feed. The compound of Example 53 and LX1606 were dissolved in 0.25% methylcellulose (MC) solution, which was orally administered to mice at the dose of 100 and 300 mg/kg/time using a 1 mL syringe. The compound of Example 53 and LX1606 were administered for 7 days, starting one day prior to dextran sulfate sodium (DSS) administration. Before and after the administration, the samples of colon tissue were collected from each mouse treated with the compound of Example 53 or the control drug (LX1606) to confirm clinical symptoms. Data are expressed as mean±standard error of mean (SEM), and all statistical analyses were performed using GraphPad Prism (version 5.0, GraphPad Software, La Jolla, Calif.). Differences in mean between groups were statistically analyzed by two-way analysis of variance (ANOVA) and multiple comparison tests to reveal the differences between the experimental groups. P<0.05 was considered statistically significant.
Enteritis was induced in mice by freely drinking 2.5% DSS (molecular weight: 36,000-50,000 M.Wt; manufactured by MP Biomedicals, Canada) aqueous solution for 6 days, and the body weight, stiffness of the stool, and the presence or absence of bloody stool were observed daily from the start of the administration. […]

DSS colitis [3] = assay: DSS colitis mouse model: H&E staining of colon sections; conditions: 100 mg/kg oral, 2.5% DSS
DSS colitis [4] = assay: DSS colitis mouse model: disease activity index / macroscopic score; conditions: 100 mg/kg oral, 2.5% DSS

CCOC(=O)[C@@H](N)CC1CC=C(c2cc(O[C@H](c3ccc(Cl)cc3-n3ccc(C)n3)C(F)(F)F)nc(N)n2)CC1 (stereo partly drawn) [Example 53, ethyl (2S)-2-amino-3-(4-(2-amino-6-((R)-1-(4-chloro-2-(3-methyl-1H-pyrazole-1-yl)phenyl)-2,2,2-trifluoroethoxy)pyrimidine-4-yl)cyclohex-3-ene-1-yl)propionate hippurate]
MPO activity in colon tissue (DSS colitis [1]; 300 mg/kg oral): significantly reduced | MPO activity in colon tissue (DSS colitis [1]; oral 100 and 300 mg/kg): lower MPO activity on average than the group treated with LX1606 | colon length compared with vehicle group (DSS colitis [2]; 100 mg/kg and 300 mg/kg oral, 7 days): longer than that of the group treated with vehicle | degree of colon loose (DSS colitis [2]; oral, compared between groups): loose least | epithelial cell damage and crypt damage (H&E) (DSS colitis [3]): little or no epithelial cell damage and crypt damage | macroscopic score (rectal bleeding, hernia, intestinal bleeding, fecal consistency) (DSS colitis [4]): reduced most significantly
